In US4080460A, “Biguanides and therapeutic compositions and uses of the same” (Aron Sarl, priority 1975, dated 1978):
Structures can show the parent of a compound that is named as a salt. At least one compound was matched to its structure with a doubt left.

System: uptake of ^3 H noradrenalin by the synaptosomes of a rat hypothalamus homogenate
Test: inhibition of the uptake of ^3 H noradrenalin by the synaptosomes of a rat hypothalamus homogenate
Assay type: biochemical
Details: with respect to the control test
Source text: The compounds of the formula (I) are capable of modifying the accumulation of noradrenalin and particularly to inhibit the uptake of ^3 H noradrenalin by the synaptosomes of a rat hypothalamus homogenate prepared according to Banerjee, Snyder and Mechoulam (J. Pharmacol. Exp. Ther., 194, 1, 74, 1975). This inhibition of the uptake of ^3 H noradrenaline is a known property of various compounds having an activity on the central nervous system and/or on the sympathetic nervous system, particularly a hypotensive effect (J. Glowinski and J. Axelrod, Effects of Drugs on the Disposition of ^3 H norepinephrine in the Rat Brain, Pharmacological Reviews, Vol. 18, n°1, Part I, 1966).
They are expressed as percent inhibition of the uptake with respect to the control test.

In the case of Cc1cc(NC(=N)NC(=N)N)no1 [Example 1, (5-methyl-isoxazol-3-yl)biguanide hydrochloride], the “inhibition % of the uptake of ^3 H noradrenalin” value (5 × 10^-4 M ultimate concentration) is reported as 64% and the “inhibition % of the uptake of ^3 H noradrenalin” value (5 × 10^-5 M ultimate concentration) is reported as 31%.
